The supplement of paper PMC6411743
± gives the standard deviation of the averaged measurements. The entries are a selection whose mix differs from that of the whole data set.

Assays:
Assay in all cases: NP40-soluble protein abundance relative to vehicle (solubility fold change) (ratio); higher = more soluble protein in presence of AMP-PNP
PPM1A = biological target: T1, PPM1A (UniProt P35813)
T1 sequence (whole entry): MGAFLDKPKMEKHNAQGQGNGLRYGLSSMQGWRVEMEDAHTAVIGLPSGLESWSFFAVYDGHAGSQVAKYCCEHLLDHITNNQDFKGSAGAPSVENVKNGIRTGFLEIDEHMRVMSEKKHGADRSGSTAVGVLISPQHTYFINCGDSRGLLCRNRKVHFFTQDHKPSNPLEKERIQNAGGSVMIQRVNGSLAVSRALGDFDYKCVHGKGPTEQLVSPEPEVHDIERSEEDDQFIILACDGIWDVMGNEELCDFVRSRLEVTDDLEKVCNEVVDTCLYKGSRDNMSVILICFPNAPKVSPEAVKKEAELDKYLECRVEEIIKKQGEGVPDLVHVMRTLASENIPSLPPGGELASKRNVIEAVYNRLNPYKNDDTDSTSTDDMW
In short: (§1)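 In three independent experiments, Jurkat crude lysate made by Dounce homogenisation was treated for 10 min at room temperature and then 3 min at 37 °C with eight concentrations ranging from 0.1 to 10 mM. It was then solubilised with 0.8% NP40 plus benzonase for 60 min at 4 °C and ultracentrifuged. The supernatant was TMT-labelled for LC-MS/MS, and each value is the fold change against the detergent-processed vehicle for the same replicate, using vsn-normalised intensities.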

UBA1 = biological target: T2, UBA1 (UniProt P22314)
T2 sequence (whole entry): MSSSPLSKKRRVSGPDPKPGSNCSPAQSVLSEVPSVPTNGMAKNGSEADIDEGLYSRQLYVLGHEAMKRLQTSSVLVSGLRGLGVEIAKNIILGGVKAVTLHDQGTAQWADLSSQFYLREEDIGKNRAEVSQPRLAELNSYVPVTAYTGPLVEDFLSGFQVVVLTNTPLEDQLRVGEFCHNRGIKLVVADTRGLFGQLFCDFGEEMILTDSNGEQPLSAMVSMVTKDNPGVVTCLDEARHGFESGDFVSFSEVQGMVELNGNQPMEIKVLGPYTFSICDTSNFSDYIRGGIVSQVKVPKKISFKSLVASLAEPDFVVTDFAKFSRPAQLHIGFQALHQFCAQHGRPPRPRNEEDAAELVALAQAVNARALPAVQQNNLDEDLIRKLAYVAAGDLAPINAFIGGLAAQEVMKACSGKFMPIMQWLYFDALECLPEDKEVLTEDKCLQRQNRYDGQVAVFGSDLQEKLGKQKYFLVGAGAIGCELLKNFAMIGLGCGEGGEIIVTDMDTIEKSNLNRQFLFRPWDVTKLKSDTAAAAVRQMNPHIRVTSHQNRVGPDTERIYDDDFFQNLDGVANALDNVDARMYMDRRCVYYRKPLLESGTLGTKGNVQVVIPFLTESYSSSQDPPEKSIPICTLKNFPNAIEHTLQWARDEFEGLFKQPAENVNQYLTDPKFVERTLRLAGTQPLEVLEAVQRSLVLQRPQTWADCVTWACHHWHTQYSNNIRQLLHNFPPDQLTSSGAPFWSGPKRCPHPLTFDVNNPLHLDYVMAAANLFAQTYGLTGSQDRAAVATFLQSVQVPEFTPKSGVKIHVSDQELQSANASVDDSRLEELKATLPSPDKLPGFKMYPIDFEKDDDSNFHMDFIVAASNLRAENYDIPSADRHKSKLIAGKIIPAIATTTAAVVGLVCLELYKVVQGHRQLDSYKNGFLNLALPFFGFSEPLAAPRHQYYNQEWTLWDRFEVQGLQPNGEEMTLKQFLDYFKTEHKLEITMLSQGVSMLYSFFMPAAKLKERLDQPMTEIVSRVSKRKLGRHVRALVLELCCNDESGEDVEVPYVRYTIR
In short: as §1

[1] = biological target: T3, UniProt P18846 and related entries
T3 sequence (whole entry): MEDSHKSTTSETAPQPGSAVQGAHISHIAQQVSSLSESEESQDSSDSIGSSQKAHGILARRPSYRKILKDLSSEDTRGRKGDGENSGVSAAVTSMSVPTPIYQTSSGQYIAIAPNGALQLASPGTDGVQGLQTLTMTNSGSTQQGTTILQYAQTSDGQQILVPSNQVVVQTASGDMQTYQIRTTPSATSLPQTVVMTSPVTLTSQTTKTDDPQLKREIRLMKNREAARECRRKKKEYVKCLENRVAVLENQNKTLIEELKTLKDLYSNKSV
In short: as §1

[2] = biological target: T4, UniProt P31350 and related entries
T4 sequence (whole entry): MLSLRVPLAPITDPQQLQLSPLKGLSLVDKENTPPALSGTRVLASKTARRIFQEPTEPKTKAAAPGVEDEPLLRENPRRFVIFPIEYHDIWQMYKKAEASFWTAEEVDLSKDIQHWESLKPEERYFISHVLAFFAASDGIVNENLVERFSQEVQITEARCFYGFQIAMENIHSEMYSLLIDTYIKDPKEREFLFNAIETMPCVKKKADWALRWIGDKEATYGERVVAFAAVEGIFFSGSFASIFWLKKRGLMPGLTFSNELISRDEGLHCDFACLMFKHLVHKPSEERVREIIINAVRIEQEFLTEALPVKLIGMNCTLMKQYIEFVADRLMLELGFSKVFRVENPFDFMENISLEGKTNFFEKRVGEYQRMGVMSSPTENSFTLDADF
In short: as §1

[3] = biological target: T5, UniProt P32856 and related entries
T5 sequence (whole entry): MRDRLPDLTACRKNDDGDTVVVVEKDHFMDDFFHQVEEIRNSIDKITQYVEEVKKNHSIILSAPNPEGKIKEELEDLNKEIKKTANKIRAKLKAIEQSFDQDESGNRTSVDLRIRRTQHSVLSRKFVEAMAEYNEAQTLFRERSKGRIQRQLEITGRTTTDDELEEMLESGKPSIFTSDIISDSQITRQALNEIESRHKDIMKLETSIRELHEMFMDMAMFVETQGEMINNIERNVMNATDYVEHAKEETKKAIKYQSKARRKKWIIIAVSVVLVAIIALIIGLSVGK
In short: as §1

[4] = biological target: T6, UniProt P35613 and related entries
T6 sequence (whole entry): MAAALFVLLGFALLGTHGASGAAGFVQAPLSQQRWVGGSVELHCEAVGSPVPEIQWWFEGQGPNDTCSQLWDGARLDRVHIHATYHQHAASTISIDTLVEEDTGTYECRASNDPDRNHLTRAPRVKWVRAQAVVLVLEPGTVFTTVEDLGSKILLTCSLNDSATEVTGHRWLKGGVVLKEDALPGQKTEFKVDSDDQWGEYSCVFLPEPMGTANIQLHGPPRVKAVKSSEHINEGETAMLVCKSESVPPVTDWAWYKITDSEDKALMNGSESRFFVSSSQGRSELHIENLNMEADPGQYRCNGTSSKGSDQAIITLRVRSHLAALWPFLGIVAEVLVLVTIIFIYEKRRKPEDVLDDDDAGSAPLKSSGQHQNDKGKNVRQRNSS
In short: as §1

UniProt P35626 = biological target: T7, UniProt P35626
T7 sequence (whole entry): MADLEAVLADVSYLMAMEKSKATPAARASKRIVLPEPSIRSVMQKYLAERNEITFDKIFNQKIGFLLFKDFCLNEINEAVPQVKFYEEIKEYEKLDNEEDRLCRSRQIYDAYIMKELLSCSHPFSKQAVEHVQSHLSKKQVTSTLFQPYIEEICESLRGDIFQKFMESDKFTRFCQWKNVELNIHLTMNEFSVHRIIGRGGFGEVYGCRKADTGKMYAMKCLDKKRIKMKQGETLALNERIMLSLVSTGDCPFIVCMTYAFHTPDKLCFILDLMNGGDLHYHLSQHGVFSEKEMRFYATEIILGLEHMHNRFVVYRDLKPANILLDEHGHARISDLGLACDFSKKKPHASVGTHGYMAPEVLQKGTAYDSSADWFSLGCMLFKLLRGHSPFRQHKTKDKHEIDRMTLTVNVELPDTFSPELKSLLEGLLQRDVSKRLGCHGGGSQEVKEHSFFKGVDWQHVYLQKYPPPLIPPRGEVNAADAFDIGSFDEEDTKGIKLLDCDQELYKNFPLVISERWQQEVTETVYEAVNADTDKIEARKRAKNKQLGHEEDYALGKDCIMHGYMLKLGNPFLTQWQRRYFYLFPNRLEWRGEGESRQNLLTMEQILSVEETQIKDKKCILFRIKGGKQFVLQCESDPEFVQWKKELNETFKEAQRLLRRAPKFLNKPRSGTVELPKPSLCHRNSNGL
In short: as §1

YWHAB = biological target: T8, YWHAB (UniProt P31946)
T8 sequence (whole entry): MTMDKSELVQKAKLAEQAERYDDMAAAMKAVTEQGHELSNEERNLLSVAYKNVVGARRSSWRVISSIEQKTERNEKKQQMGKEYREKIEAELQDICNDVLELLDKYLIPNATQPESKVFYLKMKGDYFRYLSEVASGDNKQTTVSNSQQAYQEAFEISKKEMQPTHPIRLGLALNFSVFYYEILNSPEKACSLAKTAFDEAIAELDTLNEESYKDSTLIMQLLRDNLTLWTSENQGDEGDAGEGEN
In short: as §1

Nc1ncnc2c1ncn2[C@@H]1O[C@H](COP(=O)(O)OP(=O)(O)NP(=O)(O)O)[C@@H](O)[C@H]1O [adenylyl imidodiphosphate]
NP40-soluble protein abundance (PPM1A; concentration: 6mM): 1.02 ± 0.041
NP40-soluble protein abundance (PPM1A; concentration: 8mM): 0.976 ± 0.022
NP40-soluble protein abundance (PPM1A; concentration: 10mM): 1 ± 0.054
NP40-soluble protein abundance (UBA1; concentration: 1mM): 0.9895 ± 0.0049
NP40-soluble protein abundance (UBA1; concentration: 2mM): 0.955 ± 0.023
NP40-soluble protein abundance (UBA1; concentration: 4mM): 0.9783 ± 0.0037
NP40-soluble protein abundance (UBA1; concentration: 6mM): 0.978 ± 0.021
NP40-soluble protein abundance (UBA1; concentration: 8mM): 0.951 ± 0.072
NP40-soluble protein abundance (UBA1; concentration: 10mM): 0.956 ± 0.033
NP40-soluble protein abundance ([1]; concentration: 1mM): 0.941 ± 0.018
NP40-soluble protein abundance ([1]; concentration: 2mM): 1.04 ± 0.06
NP40-soluble protein abundance ([1]; concentration: 4mM): 0.9115 ± 0.0038
NP40-soluble protein abundance ([1]; concentration: 6mM): 0.989 ± 0.03
NP40-soluble protein abundance ([1]; concentration: 8mM): 0.934 ± 0.023
NP40-soluble protein abundance ([1]; concentration: 10mM): 0.995 ± 0.022
NP40-soluble protein abundance ([2]; concentration: 1mM): 0.986 ± 0.035
NP40-soluble protein abundance ([2]; concentration: 2mM): 0.976 ± 0.03
NP40-soluble protein abundance ([2]; concentration: 4mM): 0.985 ± 0.021
NP40-soluble protein abundance ([2]; concentration: 6mM): 0.94 ± 0.012
NP40-soluble protein abundance ([2]; concentration: 8mM): 0.944 ± 0.019
NP40-soluble protein abundance ([2]; concentration: 10mM): 0.91 ± 0.027
NP40-soluble protein abundance ([3]; concentration: 1mM): 1.03 ± 0.019
NP40-soluble protein abundance ([3]; concentration: 2mM): 1.07 ± 0.019
NP40-soluble protein abundance ([3]; concentration: 4mM): 1 ± 0.031
NP40-soluble protein abundance ([3]; concentration: 6mM): 1.01 ± 0.013
NP40-soluble protein abundance ([3]; concentration: 8mM): 1.01 ± 0.029
NP40-soluble protein abundance ([3]; concentration: 10mM): 0.992 ± 0.016
NP40-soluble protein abundance ([4]; concentration: 1mM): 1.02 ± 0.02
NP40-soluble protein abundance ([4]; concentration: 2mM): 1.08 ± 0.093
NP40-soluble protein abundance ([4]; concentration: 4mM): 0.989 ± 0.051
NP40-soluble protein abundance ([4]; concentration: 6mM): 1.03 ± 0.021
NP40-soluble protein abundance ([4]; concentration: 8mM): 0.997 ± 0.03
NP40-soluble protein abundance ([4]; concentration: 10mM): 0.987 ± 0.036
NP40-soluble protein abundance (UniProt P35626; concentration: 1mM): 1.03 ± 0.033
NP40-soluble protein abundance (UniProt P35626; concentration: 2mM): 0.993 ± 0.023
NP40-soluble protein abundance (UniProt P35626; concentration: 4mM): 1.04 ± 0.04
NP40-soluble protein abundance (UniProt P35626; concentration: 6mM): 1.05 ± 0.018
NP40-soluble protein abundance (UniProt P35626; concentration: 8mM): 1.07 ± 0.011
NP40-soluble protein abundance (UniProt P35626; concentration: 10mM): 1.02 ± 0.0086
NP40-soluble protein abundance (YWHAB; concentration: 1mM): 0.982 ± 0.024
NP40-soluble protein abundance (YWHAB; concentration: 2mM): 1.09 ± 0.08
NP40-soluble protein abundance (YWHAB; concentration: 4mM): 0.971 ± 0.056
NP40-soluble protein abundance (YWHAB; concentration: 6mM): 0.967 ± 0.044
NP40-soluble protein abundance (YWHAB; concentration: 8mM): 0.964 ± 0.012
NP40-soluble protein abundance (YWHAB; concentration: 10mM): 0.958 ± 0.075
